This is an account of results in PMC1888729.

These are yes or no findings as the source states them, for the method shown. Binding seen in cells or lysates may run through a third protein. Some binding calls cover weakened binding; strength is not graded here. Sequences can lack the tags named with a protein.

The target in the assay is T1, His-tagged U2AF35 (HEK-293E), Q01081.
T1 chain: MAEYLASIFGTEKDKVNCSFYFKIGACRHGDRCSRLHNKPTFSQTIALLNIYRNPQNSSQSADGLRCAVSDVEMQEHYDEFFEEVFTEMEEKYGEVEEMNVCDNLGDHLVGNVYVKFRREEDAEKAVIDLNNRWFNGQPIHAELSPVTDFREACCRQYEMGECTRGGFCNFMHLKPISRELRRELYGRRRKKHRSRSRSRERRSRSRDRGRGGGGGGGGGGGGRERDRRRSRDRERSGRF
The assay is described as follows: pull-down; His-tagged U2AF35 expressed in 293E cells, lysate (50 mM Tris-HCl pH 8, 1% NP-40, 5 mM imidazole) on Ni-NTA agarose 1 h at 4°C, wash 0.5 M NaCl, eluted with 0.5 M imidazole; western blot; amounts by Coomassie stain against BSA. As to conditions: remark: other sources report otherwise.

B1: U2AF65 (co-purified from HEK-293E), P26368 1-475 (natural protein)
chain: MSDFDEFERQLNENKQERDKENRHRKRSHSRSRSRDRKRRSRSRDRRNRDQRSASRDRRRRSKPLTRGAKEEHGGLIRSPRHEKKKKVRKYWDVPPPGFEHITPMQYKAMQAAGQIPATALLPTMTPDGLAVTPTPVPVVGSQMTRQARRLYVGNIPFGITEEAMMDFFNAQMRLGGLTQAPGNPVLAVQINQDKNFAFLEFRSVDETTQAMAFDGIIFQGQSLKIRRPHDYQPLPGMSENPSVYVPGVVSTVVPDSAHKLFIGGLPNYLNDDQVKELLTSFGPLKAFNLVKDSATGLSKGYAFCEYVDINVTDQAIAGLNGMQLGDKKLLVQRASVGAKNATLVSPPSTINQTPVTLQVPGLMSSQVQMGGHPTEVLCLMNMVLPEELLDDEEYEEIVEDVRDECSKYGLVKSIEIPRPVDGVEVPGCGKIFVEFTSVFDCQKAMQGLTGRKFANRVVVTKYCDPDSYHRRDFW
Consider B1, for which the binding result is on record as “binds”.
